From PMC10762002 come the findings set out here.

No constants are given. Whether binding was seen depends on the method and setting. Binding seen in cells or lysates may run through a third protein. Here binding means that the protein was enriched with, or labelled near, the bait; the list need not be complete.

In experiment [1] the target is ApoL6-HA overexpressed in differentiated 3T3-L1 adipocytes (mouse). The experiment can be described thus: affinity purification with mass spectrometry; lysates cross-linked with NHS-Diazirine (SDA); lysis buffer 10 mM HEPES, 1 mM EDTA, pH 7.4, 1% DDM; IP with HA magnetic beads from LD-associated proteins of adipoQ-ApoL6 TG WAT or lysates of 3T3-L1 adipocytes overexpressing ApoL6-HA; MS of the purified proteins.

Experiment [2] has as its target HA-tagged ApoL6 (adipoQ-ApoL6 TG mice) (mouse). The description is as above.

B1: endogenous Perilipin 1 (Plin1) (protein, UniProt Q8CGN5 1-517)
chain: MSMNKGPTLLDGDLPEQENVLQRVLQLPVVSGTCECFQKTYNSTKEAHPLVASVCNAYEKGVQGASNLAAWSMEPVVRRLSTQFTAANELACRGLDHLEEKIPALQYPPEKIASELKGTISTRLRSARNSISVPIASTSDKVLGATLAGCELALGMAKETAEYAANTRVGRLASGGADLALGSIEKVVEFLLPPDKESAPSSGRQRTQKAPKAKPSLVRRVSTLANTLSRHTMQTTAWALKQGHSLAMWIPGVAPLSSLAQWGASAAMQVVSRRQSEVRVPWLHNLAASQDESHDDQTDTEGEETDDEEEEEESEAEENVLREVTALPNPRGLLGGVVHTVQNTLRNTISAVTWAPAAVLGTVGRILHLTPAQAVSSTKGRAMSLSDALKGVTDNVVDTVVHYVPLPRLSLMEPESEFRDIDNPSAEAERKGSGARPASPESTPRPGQPRGSLRSVRGLSAPSCPGLDDKTEASARPGFLAMPREKPARRVSDSFFRPSVMEPILGRAQYSQLRKKS
As to B1, the binding entry in experiment [1] and in experiment [2] was “binds” in each case.
